# Source: PubChem BioAssay AID2685 (National Center for Advancing Translational Sciences (NCATS), 2010)
# Some of the results follow. Further columns of the screen follow, without active or inactive calls. Most of these compounds were active or inconclusive in the main read-out, so they are no random draw. Potencies come from curve fits of mixed quality, noted in brackets.
# Experiment: qHTS Assay for Lipid Storage Modulators in Drosophila S3 Cells;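 as to cell number change: cells counted by Cell Tracker Red CMTPX staining in the red channel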
# Conditions: BODIPY lipid droplet fluorescence, 18-24 h; for cell number change: measured here: cell count max response, cells fed with added oleic acid
# Procedure, shortened: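 Laser-scanning cytometry quantifies lipid droplet accumulation (500–530 nm total intensity; droplet/cell object ratio) in oleic acid-fed (400 uM added) Drosophila S3 cells treated with a concentration series. 20 uM Triacsin C defined 100% inhibition.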
# [1] = measured here: cell number channel AC50, cells fed with added oleic acid
# [2] = measured here: lipid fluorescence (Fed channel) AC50, cells fed with added oleic acid
smiles,measurement,setting,value
CCOC(=O)COn1c(=O)c(-c2ccco2)[n+]([O-])c2ccccc21,cell number change,,-33.1%
Cc1ccc(S(=O)(=O)NCCc2ccc(S(N)(=O)=O)cc2)cc1,AC50,[1],"651 nM [rising, single point]"
same,AC50,[2],"517 nM [rising, single point]"
CC(C)(C)c1ccc(OCc2ccc(C(=O)N/N=C/c3ccc(O)c(O)c3)cc2)cc1,cell number change,,-49.5%
same,AC50,[1],"5.17 nM [falling, full curve, poor fit]"
O=C(Nc1ccc2c(c1)OCO2)N1CCC(CO)(CC2CCCCO2)CC1 (stereo unspecified),cell number change,,-11.7%
same,AC50,[1],"6.51 nM [falling, full curve, poor fit]"
Cc1cc(=O)[nH]c(SCC(=O)Nc2ccccc2C#N)c1C#N,AC50,[1],"206 nM [falling, full curve, poor fit]"
same,AC50,[2],"184 nM [falling, full curve, poor fit]"
CC(=O)Nc1ccc(C2=NN(CC#N)C(=O)SC2)cc1,cell number change,,14%
same,AC50,[1],"6510 nM [rising, partial curve, poor fit]"
Nc1nnc(SCC(=O)c2ccc3ccccc3c2)s1,cell number change,,59.2%
same,AC50,[1],"6510 nM [rising, partial curve, poor fit]"
same,AC50,[2],"58 nM [rising, full curve]"
COc1ccc(C(=O)CNc2ccccc2C#N)cc1,cell number change,,0.198%
CCCN(CC1CC1)C(=O)COC(=O)c1ccc(CNS(=O)(=O)c2ccc(F)c(Cl)c2)cc1,cell number change,,13.9%
COCCCNC(=S)Nc1ccc(OC(F)F)cc1C,AC50,[2],"5620 nM [rising, single point]"
CCOC(=O)c1ccc(NC(=O)CSc2nc3c(c(=O)n2CC)SC(C)C3)cc1 (stereo unspecified),cell number change,,-41.4%
same,AC50,[2],"1640 nM [rising, partial curve]"
O=C(NC1CCCC1)C1CC(=O)N(C2CCCCCCC2)C1 (stereo unspecified),cell number change,,10.1%
same,AC50,[1],"4.11 nM [rising, full curve, poor fit]"
COc1cccc(/C=N/NC(=O)CSc2nnc(C)n2-c2ccccc2)c1OC,cell number change,,-7.97%
same,AC50,[2],"20600 nM [falling, single point]"
O=c1cc(-c2ccccc2)c2ccccc2[nH]1,cell number change,,15.3%
same,AC50,[2],"20600 nM [rising, partial curve]"
COc1ccc(CNC(=O)C(c2ccc(C)o2)N(Cc2cccs2)C(=O)Cc2cccs2)cc1 (stereo unspecified),cell number change,,-22.6%
same,AC50,[2],"14600 nM [falling, partial curve]"
CC1(C)CC(=O)C/C(=N\NC(=O)C2C3CCCCC32)C1 (stereo unspecified),cell number change,,28.6%
same,AC50,[2],"4.61 nM [rising, full curve, poor fit]"
COc1cc(/C=C(\C#N)c2ccccn2)ccc1OCc1ccccc1Cl,cell number change,,-22%
same,AC50,[2],"18400 nM [falling, single point]"

# Given tab-delimited: entries from further up
smiles	measurement	setting	value
CCOC(=O)COn1c(=O)c(-c2ccco2)[n+]([O-])c2ccccc21	cell number change		-33.1%
CCCN(CC1CC1)C(=O)COC(=O)c1ccc(CNS(=O)(=O)c2ccc(F)c(Cl)c2)cc1	cell number change		13.9%
CCOC(=O)c1ccc(NC(=O)CSc2nc3c(c(=O)n2CC)SC(C)C3)cc1 (stereo unspecified)	cell number change		-41.4%
